Data as given in article PMC8864237.
Results are given in words; binding and its absence hold for the method and conditions named. In cells and extracts the contact can be indirect. Some binding calls cover weakened binding; strength is not graded here. For some assays here: Tags and fused reporters may be left off the sequences shown.

Sequences of proteins named here, by UniProt entry; tags and fusion partners are left off.
UniProt Q9H1Y0: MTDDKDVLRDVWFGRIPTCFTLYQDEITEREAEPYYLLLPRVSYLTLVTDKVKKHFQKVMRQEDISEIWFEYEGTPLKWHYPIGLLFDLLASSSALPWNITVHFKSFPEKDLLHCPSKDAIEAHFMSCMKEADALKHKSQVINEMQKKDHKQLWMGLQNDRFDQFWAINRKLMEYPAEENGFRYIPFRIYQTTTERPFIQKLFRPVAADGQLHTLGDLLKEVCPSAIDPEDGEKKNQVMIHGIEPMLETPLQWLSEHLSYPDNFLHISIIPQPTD
UniProt P46934: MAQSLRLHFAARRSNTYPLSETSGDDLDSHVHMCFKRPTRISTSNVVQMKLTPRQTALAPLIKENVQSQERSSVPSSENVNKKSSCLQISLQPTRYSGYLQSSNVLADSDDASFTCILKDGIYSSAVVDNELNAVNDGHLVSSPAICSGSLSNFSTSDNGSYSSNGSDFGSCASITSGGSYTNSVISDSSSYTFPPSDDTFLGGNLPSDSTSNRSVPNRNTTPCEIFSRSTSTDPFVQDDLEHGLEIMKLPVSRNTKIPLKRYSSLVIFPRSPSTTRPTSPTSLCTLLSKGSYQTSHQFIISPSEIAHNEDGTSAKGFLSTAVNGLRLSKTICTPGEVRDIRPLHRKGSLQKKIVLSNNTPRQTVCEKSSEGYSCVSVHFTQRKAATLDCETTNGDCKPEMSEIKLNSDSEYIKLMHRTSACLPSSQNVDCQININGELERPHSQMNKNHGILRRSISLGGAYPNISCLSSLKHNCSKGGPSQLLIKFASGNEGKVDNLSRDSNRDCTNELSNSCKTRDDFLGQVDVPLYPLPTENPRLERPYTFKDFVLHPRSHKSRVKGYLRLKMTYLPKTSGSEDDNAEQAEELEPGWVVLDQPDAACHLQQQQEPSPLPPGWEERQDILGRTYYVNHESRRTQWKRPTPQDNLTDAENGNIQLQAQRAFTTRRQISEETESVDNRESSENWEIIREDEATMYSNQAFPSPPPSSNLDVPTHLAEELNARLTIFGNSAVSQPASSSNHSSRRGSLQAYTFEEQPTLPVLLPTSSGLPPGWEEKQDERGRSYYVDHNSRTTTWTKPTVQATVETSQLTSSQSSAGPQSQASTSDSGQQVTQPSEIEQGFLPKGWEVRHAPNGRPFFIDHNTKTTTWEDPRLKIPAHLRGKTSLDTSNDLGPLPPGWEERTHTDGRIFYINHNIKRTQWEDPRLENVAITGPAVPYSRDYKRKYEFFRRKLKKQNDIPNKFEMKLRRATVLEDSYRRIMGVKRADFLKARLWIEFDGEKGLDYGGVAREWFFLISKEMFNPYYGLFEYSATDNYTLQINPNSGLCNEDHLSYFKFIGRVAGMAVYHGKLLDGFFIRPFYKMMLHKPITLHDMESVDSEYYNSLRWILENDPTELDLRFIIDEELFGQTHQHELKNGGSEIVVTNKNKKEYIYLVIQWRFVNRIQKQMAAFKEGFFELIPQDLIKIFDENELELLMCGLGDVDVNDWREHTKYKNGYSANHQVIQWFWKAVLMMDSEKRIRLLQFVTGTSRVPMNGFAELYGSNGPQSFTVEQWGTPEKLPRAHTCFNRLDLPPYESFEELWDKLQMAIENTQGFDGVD

Tests used:
[1] = target: FLAG-hATG5 (human ATG5) (human) (UniProt Q9H1Y0); experiment: co-IP; 293FT cells co-transfected with His-UB, FLAG-hATG5 or FLAG-hATG7 and pcDNA3.1 vector, CSP-HA, CSPΔNLS-HA or NLS-HA; 10 μM MG-132 for 24 h; FLAG proteins captured on anti-FLAG M2 magnetic beads, washed five times (50 mM Tris HCl, 150 mM NaCl, pH 7.4); blot with rabbit anti-NEDD4
[2] = target: T1, FLAG-hATG7 (human ATG7) (human) (UniProt O95352); experiment: as above
T1 sequence: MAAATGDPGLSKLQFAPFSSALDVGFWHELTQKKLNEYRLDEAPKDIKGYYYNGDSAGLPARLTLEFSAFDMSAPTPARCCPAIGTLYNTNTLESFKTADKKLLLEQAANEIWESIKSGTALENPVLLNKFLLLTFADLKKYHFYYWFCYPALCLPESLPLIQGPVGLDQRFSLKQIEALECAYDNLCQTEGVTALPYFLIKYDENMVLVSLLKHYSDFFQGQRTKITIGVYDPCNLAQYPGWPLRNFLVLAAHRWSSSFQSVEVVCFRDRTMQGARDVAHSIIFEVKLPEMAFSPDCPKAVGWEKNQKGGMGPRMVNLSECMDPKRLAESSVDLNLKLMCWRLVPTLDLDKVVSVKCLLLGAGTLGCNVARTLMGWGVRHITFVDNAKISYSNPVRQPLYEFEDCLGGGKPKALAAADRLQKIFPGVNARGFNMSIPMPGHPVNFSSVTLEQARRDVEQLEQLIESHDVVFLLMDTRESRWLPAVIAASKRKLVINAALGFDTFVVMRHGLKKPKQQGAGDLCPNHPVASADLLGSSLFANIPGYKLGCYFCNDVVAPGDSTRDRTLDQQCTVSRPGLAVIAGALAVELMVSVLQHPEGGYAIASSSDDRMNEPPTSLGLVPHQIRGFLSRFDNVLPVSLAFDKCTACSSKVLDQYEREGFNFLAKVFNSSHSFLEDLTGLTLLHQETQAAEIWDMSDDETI

## E3 ubiquitin ligase NEDD4 (neural precursor cell expressed, developmentally down-regulated 4) (from UniProt P46934 1-1319) (enzyme)
[1]
  binding: binds
[2]
  binding: binds
